Laboratory results from US8415391B2, “3.2.1-bicyclo-octene and -octane compounds” (International Flavors & Fragrances Inc., priority 2010, dated 2013).

assay: Odor description (fragrance notes)

| SMILES | Odor notes as described |
| --- | --- |
| CC1C(=O)CC2(C)CCC1C2 (stereo not drawn) [1,4-Dimethyl-bicyclo[3.2.1]octan-3-one] | woody, fresh, minty, and menthol notes |
| CC12CCC(C1)C1(C)OC1C2 (stereo not drawn) [2,6-Dimethyl-3-oxa-tricyclo[4.2.1.0*2,4*]nonane] | camphor, woody, fresh, sweet, minty, and thujone-like notes |
| CC1=CCC2(C)CCC1C2 (stereo not drawn) [Structure I, 2,5-dimethyl-bicyclo[3.2.1]oct-2-ene] | green, terpineol, woody, and black pepper notes |
| CC(=O)OC1CC2(C)CCC(C2)C1C (stereo not drawn) [Structure IV, acetic acid 1,4-dimethyl-bicyclo[3.2.1]oct-3-yl ester] | fruity, woody, and fresh notes |
| COC(=O)OC1CC2(C)CCC(C2)C1C (stereo not drawn) [Structure V, carbonic acid 1,4-dimethyl-bicyclo[3.2.1]oct-3-yl ester methyl ester] | fruity and green notes |
| C=CCOC1CC2(C)CCC(C2)C1C (stereo not drawn) [Structure VI, 3-allyloxy-1,4-dimethyl-bicyclo[3.2.1]octane] | fruity, green, dirty, harsh, metallic, slight woody, camphor, juicy, acetophenone-like, and fenchol-like notes |
